Data on one substance can be found in PMC7048138.

This assay deals with T1, mCherryFP-TgDCX (full-length wild-type TgDCX, mCherryFP at the N-terminus) (Toxoplasma gondii) (UniProt B6KAS6).
T1 sequence: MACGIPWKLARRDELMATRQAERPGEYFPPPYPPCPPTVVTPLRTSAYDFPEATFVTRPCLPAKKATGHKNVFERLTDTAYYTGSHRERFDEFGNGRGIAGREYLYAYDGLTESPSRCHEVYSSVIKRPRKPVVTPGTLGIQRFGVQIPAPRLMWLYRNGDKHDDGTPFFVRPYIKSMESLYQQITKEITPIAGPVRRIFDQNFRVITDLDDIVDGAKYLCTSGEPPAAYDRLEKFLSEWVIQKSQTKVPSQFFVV
Nature of the assay: fluorescence microscopy of FP-tagged protein on microtubules in cells.

No constants are given. Whether binding was seen depends on the method and setting. Binding can be weak; no strength is given.

In the case of mCerulean3FP-TgCPH1 (Toxoplasma gondii), the binding entry is given as “binds”.
